Some peptides are written in HELM: one residue between dots, names in brackets for other building blocks, links after the first $. Non-standard residues stand in square brackets, D forms with d. *: point of attachment. dOrn = NCCC[C@@H](N)C(=O)O; Cbz = O=C(OCc1ccccc1)*; Boc = CC(C)(C)OC(=O)*; Bn = c1ccc(C*)cc1

From patent US6248716A (priority 1999, dated 2001) come the findings set out here.

The nature of the data set: general procedure: solution-phase peptide synthesis; isobutyl chloroformate/N-methyl morpholine (mixed anhydride); dicyclohexyl carbo.

In turn, Boc-Tyr(Bzl)-D-Orn(Z)-Phe-D-Glu-(oBzl)2 came in with a step yield (coupling step) of 93.2%.

As for TFA.H-Tyr(Bzl)-D-Orn(Z)-Phe-D-Ala-OH, the step yield (late stage modification step) is recorded as 100%. Same read-out and setting: the figure for TFA.Tyr-D-Ala-Phe-Gly-oBzl is 100%.

The substance PEPTIDE1{Y.[D-Orn].F.[dE]}$$$$V2.0 showed a step yield (late stage modification step) of 98.8%. In turn, Boc-Tyr(Boc)-D-Ala-Phe-Gly-oBzl showed a step yield (coupling step) of 83.4%. Consider Boc-Arg (NO2)-Tyr-D-Ala-Phe-Gly-oBzl, for which the step yield (coupling step) came out at 87.2%. The same measure, in the same setting: the figure for Z3 -Arg-Tyr(Bzl)-D-Orn(Z)-Phe-D-Ala-OH is 92.0%. As to PEPTIDE1{R.Y.[D-Orn].F.[dA]}$$$$V2.0, under “late stage modification step”, the step yield came out at 80.8%. Boc-Y(Bn)[dOrn](Cbz)F[dA]-OH showed a step yield (coupling step) of 82.0%.
